{"source": "patent US20260034227A1", "about": "“AZLACTONE-BASED POLYMERS AS A SCAFFOLD FOR DIVERSE APPLICATIONS IN DRUG AND GENE DELIVERY” (University of Mississippi, priority 2022, published 2026)", "system": "HEK-293 cells", "assay": "Subcellular colocalization imaging with LysoTracker Green", "assay_type": "cell-based, human", "data": [{"substance": "N-(2-hydroxyethyl)-N,N-dimethyl-2-oxo-2-(2-oxo-2H-chromen-3-yl)ethanaminium [DBAC]", "values": [{"measurement": "reduction in LysoTracker colocalization of DBAC compared to TMR and Lysotracker", "result": 25, "unit": "%"}]}]}
